Binding data for two molecules are collected here from article doi:10.1101/2021.11.02.466916.

Sequences of proteins named here, by UniProt entry; tags and fusion partners are left off.
UniProt P38903: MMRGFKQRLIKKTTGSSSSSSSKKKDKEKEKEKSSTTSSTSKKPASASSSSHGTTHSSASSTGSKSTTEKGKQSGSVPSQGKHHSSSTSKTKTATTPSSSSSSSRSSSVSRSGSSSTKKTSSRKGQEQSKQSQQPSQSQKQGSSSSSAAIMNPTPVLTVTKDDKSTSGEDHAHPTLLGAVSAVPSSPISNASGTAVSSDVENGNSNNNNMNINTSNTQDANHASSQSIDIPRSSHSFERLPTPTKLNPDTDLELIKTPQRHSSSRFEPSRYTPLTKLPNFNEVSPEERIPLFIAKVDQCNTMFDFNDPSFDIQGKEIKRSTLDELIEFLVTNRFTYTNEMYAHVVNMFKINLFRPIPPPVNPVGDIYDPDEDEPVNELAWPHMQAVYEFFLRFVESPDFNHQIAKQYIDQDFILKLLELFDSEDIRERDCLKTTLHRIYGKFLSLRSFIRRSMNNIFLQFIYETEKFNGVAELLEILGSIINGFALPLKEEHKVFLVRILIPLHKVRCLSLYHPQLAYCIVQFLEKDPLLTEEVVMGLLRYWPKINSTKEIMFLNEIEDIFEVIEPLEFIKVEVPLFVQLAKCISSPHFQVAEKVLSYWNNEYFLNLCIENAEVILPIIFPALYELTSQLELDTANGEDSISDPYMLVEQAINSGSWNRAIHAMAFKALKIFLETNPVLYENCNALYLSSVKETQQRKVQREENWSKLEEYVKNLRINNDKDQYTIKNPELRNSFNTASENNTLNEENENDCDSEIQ

Positions count from the first letter of the chain named. In names and notes the source's numbering stands. Results are given in words; binding and its absence hold for the method and conditions named. Some results given as binding are weak or reduced against the parent protein; the word gives no strength.

One assay deals with Rts1 (S. cerevisiae) (UniProt P38903). The assay is described as follows: two-hybrid.
The target of a further assay is T1, Dpb11 (S. cerevisiae) (UniProt P47027).
T1 sequence: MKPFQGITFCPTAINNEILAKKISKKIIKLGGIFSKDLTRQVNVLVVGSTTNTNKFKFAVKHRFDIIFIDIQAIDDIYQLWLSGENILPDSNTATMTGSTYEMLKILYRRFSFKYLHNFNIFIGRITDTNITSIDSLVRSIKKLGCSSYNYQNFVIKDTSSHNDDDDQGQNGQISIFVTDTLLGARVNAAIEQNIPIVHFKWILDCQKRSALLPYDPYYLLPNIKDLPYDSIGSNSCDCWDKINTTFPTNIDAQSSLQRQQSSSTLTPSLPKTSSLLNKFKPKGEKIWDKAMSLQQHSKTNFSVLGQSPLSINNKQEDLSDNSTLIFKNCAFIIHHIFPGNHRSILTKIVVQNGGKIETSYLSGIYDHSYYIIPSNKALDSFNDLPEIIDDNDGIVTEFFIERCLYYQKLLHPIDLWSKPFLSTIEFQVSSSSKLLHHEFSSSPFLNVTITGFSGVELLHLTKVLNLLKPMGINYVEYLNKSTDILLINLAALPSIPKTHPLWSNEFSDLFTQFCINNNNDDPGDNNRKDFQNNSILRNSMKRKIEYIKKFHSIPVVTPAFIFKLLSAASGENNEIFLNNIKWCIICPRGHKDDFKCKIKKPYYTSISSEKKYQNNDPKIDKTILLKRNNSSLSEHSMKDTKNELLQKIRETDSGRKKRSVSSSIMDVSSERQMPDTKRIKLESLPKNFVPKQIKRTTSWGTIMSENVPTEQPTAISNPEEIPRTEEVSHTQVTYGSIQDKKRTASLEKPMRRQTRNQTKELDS
The assay is described as follows: two-hybrid.

B1: Sld3 (protein, UniProt P53135 1-668)
chain: METWEVIASVKEATKGLDLSLDHPLIIKSEDVPSNILQLLQQKNRRQLKHICMKSRKEYFLLEEYGPGFWVKWPYNYFNGYSLPERRTEVVTTVERERAKRETLKTWDELKFKELLHLWSEEPKGSCKLEKDKDLKLDMNPPDMKGESKINDYYSDPKEYIESKYYDALFSIHTPLAYFVKSNLVRLKNTCRTKYGSDSYKIAYQAMLQKFLLSIVQFKDRHDNRLLLEPFSSPIADEKRKNCLTKFVIQDENKNSSTIADLCVVLKSREIKLQILLLLEIIGLNDLDWNFRDFEKKYKLKLKKRSLNLTKKGLVRRRSKKKTSEKDKGIERITTSLDYCEQLDLYLDRACILDILLSSETPNPDAIEASNGTIQEHKKNILDKSKEASLVGFINYVLIPYFNKKVPHAVEFIIQKLKGPSMRPKRALKKVNDSTNVSSPNTVETYNRLSTSQRASRSSIINSVPSSPALRRVDANLFSRKSIASPTPELLNSRTNSNLNEFLESETRSLKRPSQLGRTKSDLTMNHLQKRQFSVSDLSTTRVPNSSTITLKTPFSHSTINAYKTMNNSFRRVGKRKDINETIRLHERVDSEENVQVQATPAVKKRTVTPNKKAQLQSIIESPLNFKDDDTHEGRKNTSNITSTPTNKPPENSSKRRVRRRLFAPEST
On to B1, for which the binding result in the assay with Rts1 (S. cerevisiae) and with Dpb11 (S. cerevisiae) was “binds” each time.

B2: Sld3-R (Sld3 with L616A and I619A in the Rts1 binding consensus) (protein, UniProt P53135 1-668)
chain: B1 chain with L616A, I619A
Turning to B2, the binding entry with Rts1 (S. cerevisiae) is listed as “no binding”; in the assay with Dpb11 (S. cerevisiae), “binds”.
